Reference: US20040091974A1
These are yes or no findings as the source states them, for the method shown. Some results given as binding are weak or reduced against the parent protein; the word gives no strength.

Columns and labels:
[1] = target: human HLA-DR on human cells (HLA-DR positive cell strains, peripheral blood mononuclear cells, mature dendritic cells) (human); assay: flow cytometry on HLA-DR positive cells, as in Example 10
[2] = target: HLA-DR protein purified from the lymphoma cell SKW 6.4 (human); assay: Western blot of HLA-DR protein purified from SKW 6.4, nonreducing
[3] = target: T1, 13-mer peptide, amino acids 63 to 75 of the HLA-DR β chain (DRB1*15011) (human); assay: SPOT 13-mer peptide array on cellulose membrane, chemiluminescence
T1 sequence (peptide, N-terminus acetylated; bound to a cellulose membrane through the C-terminus): SQKDILEQARAAV

Measured: binding

B1: HD8 (antibody, IgG2, V domains shown)
VH: QVQLQHSGPGLVKPSQTLSLTCAISGDSVSSNSASWNWIRQSPSRGLEWLGRTYYRSKWYNDYAVSVKSRIVINPDTSKNQFSLQLNSVTPEDTAVYYCARENFYGSETCHKKYYCYGMDVWGQGTTVTVSS
VL: AIQLTQSPSSLSASVGDRVTITCRASQGISSALAWYQQKPGKAPKLLIYDASSLESGVPSRFSGSGSGTDFTLTISSLQPEDFATYYCQQFNSFPLTFGGGTKVEIK
binds: [1] | [2] | [3]
